In PubChem BioAssay AID2685 (National Center for Advancing Translational Sciences (NCATS), 2010) one finds cell number change and AC50 data, which are given here for 16 compounds.

This is one part of the list. These are further read-outs of the screen, such as a control signal, another cell line or another target. No call is given for them. Compounds called inactive in the main read-out are mostly missing here. Words in brackets tell the shape of the fitted curve; partial curves, single points and poor fits give uncertain potencies.

The nature of the test: qHTS Assay for Lipid Storage Modulators in Drosophila S3 Cells.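 For cell number change: cells counted by Cell Tracker Red CMTPX staining in the red channel.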 Particulars: BODIPY lipid droplet fluorescence, 18-24 h; for cell number change: measured here: cell count max response, cells fed with added oleic acid. In outline:
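Drosophila S3 cells loaded with oleic acid (400 uM, as added) and compounds at several concentrations; lipid droplets imaged by 488-nm laser-scanning cytometry, 500–530 nm intensity and object ratio to cell channel. Percent activity normalized to 20 uM Triacsin C.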

Where [1] appears, read: measured here: cell number channel AC50, cells fed with added oleic acid.
The mark [2] stands for this setting: measured here: lipid fluorescence (Fed channel) AC50, cells fed with added oleic acid.

Broadly, the AC50 is the concentration at which the activity in the assay is half-maximal. A lower AC50 goes with activity at low concentration. For the compound `COC(=O)c1ccc(C(C(=O)NCc2ccccc2)N(Cc2cccs2)C(=O)c2cnccn2)cc1` (stereo not drawn), the cell number change is 61.7%. Also, the AC50 under setting [1] was 1.16 µM [rising, full curve]. In addition, the AC50 under setting [2] is 2.31 µM [rising, partial curve].

With `CC(C)(C)OC(=O)N[C@H](Cc1ccccc1)C(=O)N1CCC(C(=O)O)CC1`, the cell number change was determined as 2.16%. Also, under setting [2], the AC50 is 0.13 µM [falling, full curve, poor fit].

In the case of `Cc1ccccc1OCCn1ccnc1`, the cell number change came out at 21.5%. Under setting [2], the AC50 was 6.51 µM [rising, single point].

With `COc1ccc2c(c1)c(C(=O)CN1CCOCC1)c(C)n2C`, the cell number change was -19.1%. Further, under setting [2], the AC50 is 2.59 µM [rising, partial curve, poor fit].

As to `C=CCc1cccc(/C=N/c2ncccc2O)c1O`, the cell number change came out at 9.85%.

For the compound `O=C(NC1CC2CCCC(C1)N2S(=O)(=O)c1ccccc1)c1ccccc1` (stereo not drawn), the cell number change was -23.9%.

`CC1Cc2ccccc2N1S(=O)(=O)c1cnc(Cl)c(Br)c1` (stereo not drawn): the cell number change came out at 7.72%. Further, under setting [2], the AC50 is 29.1 µM [rising, single point].

For the compound `CC(/C=C/c1ccc(OCc2ccccc2)cc1)=N\O`, the cell number change amounted to 66.7%. Moreover, the AC50 under setting [1] is 29.1 µM [rising, single point]. For the same compound, the AC50 under setting [2] was 7.31 µM [rising, partial curve, poor fit].

For the compound `CCN(Cc1ccccc1)C(=O)Cn1c(=O)oc2ccccc21`, the cell number change was 7.58%. In addition, under setting [1], the AC50 is 6.51 µM [falling, single point]. Also, the AC50 under setting [2] was 0.00517 µM [falling, full curve, poor fit].

`COc1ccccc1N1CCN(C(c2cc3ccc(C)cc3[nH]c2=O)c2nnnn2C2CCCC2)CC1` (stereo not drawn): the cell number change came out at 58.5%. The AC50 under setting [1] is 29.1 µM [rising, single point].

With `O=S(=O)(c1ccccc1)N1N=C(c2cccs2)CC1c1cccc(O)c1` (stereo not drawn), the cell number change was -30.6%. The AC50 under setting [1] was 13 µM [falling, partial curve, poor fit].

As to `COCCn1c(C)cc(C(=O)COC(=O)/C=C/c2c(C)nn(C3CCS(=O)(=O)C3)c2Cl)c1C` (stereo not drawn), the cell number change is -50%. Under setting [1], the AC50 is 29.1 µM [falling, single point]. The AC50 under setting [2] was 29.1 µM [falling, single point].

For `CC(C)C(=O)Nc1nc2c(c(=O)[nH]1)CCCC2`, the cell number change is -30%. Moreover, under setting [2], the AC50 is 29.1 µM [falling, single point].

In the case of `CCOC(=O)c1ccc(NC(=S)N(CCCN2CCCC2)Cc2cccs2)cc1`, under setting [1], the AC50 is 3.66 µM [rising, partial curve].

On to `Cc1cc(NC(=O)C(C)SCC(=O)N(C)Cc2ccccc2F)no1` (stereo not drawn), for which the cell number change is -8.03%. Further, the AC50 under setting [2] is 14.6 µM [rising, partial curve, poor fit].

As for `CN=c1scc(C)n1/N=C/c1cc(Br)c(O)c(OC)c1`, the cell number change came to 22%. The AC50 under setting [2] was 29.1 µM [rising, single point].
